Values of other authors as cited in US20220127232A1, “HISTONE ACETYLTRANSFERASE MODULATORS AND COMPOSITIONS AND USES THEREOF” (The Trustees of Columbia University in the City of New York, priority 2019, published 2022).
At least one compound was matched to its structure with a doubt left.

Details: cited from earlier work

In the case of CCCCCCCCCCCCCCCc1cccc(OCC)c1C(=O)Nc1ccc(Cl)c(C(F)(F)F)c1 [CTPB], the Membrane permeability is given as “membrane-impermeable”.
